From PMC10174503 come the findings set out here.

Protein sequences, listed by entry. Tags and fused reporters are not part of them.
UniProt Q9EPU0: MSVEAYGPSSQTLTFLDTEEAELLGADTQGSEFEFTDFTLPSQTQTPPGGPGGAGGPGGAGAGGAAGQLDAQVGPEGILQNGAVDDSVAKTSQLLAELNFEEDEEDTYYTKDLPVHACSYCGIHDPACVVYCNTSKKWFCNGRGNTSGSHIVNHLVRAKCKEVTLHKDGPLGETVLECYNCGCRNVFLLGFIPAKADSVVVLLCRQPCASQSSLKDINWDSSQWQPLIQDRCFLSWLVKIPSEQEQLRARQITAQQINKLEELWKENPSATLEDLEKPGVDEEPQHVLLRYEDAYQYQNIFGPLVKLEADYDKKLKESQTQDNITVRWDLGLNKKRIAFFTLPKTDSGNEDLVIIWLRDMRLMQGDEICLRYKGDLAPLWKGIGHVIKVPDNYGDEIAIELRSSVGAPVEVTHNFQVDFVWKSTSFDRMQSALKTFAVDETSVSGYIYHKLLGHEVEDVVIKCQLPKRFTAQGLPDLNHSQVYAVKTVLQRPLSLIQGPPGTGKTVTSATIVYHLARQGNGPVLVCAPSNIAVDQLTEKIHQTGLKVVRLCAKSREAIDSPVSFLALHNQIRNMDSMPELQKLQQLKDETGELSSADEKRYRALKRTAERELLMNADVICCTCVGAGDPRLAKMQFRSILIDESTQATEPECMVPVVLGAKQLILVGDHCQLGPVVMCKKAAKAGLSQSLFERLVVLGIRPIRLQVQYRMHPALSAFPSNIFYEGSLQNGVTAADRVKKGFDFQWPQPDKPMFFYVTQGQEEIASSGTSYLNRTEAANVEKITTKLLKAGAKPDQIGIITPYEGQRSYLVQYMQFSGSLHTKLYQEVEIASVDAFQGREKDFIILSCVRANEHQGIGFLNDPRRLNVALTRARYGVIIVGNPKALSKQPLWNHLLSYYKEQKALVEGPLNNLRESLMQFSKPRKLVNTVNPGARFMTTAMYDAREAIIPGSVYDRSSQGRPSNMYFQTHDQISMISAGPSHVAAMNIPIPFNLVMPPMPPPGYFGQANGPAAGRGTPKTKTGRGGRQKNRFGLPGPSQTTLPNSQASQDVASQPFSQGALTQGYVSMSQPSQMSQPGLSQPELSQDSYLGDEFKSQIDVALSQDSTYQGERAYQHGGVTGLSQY

These are yes or no findings as the source states them, for the method shown. In cells and extracts the contact can be indirect. These calls come from enrichment with a bait or labelling near it, and not all partners need be listed.

This assay addresses T1, MOV10 (Moloney leukemia virus 10) RNA helicase (mouse (endogenous in testis)) (UniProt P23249).
T1 sequence: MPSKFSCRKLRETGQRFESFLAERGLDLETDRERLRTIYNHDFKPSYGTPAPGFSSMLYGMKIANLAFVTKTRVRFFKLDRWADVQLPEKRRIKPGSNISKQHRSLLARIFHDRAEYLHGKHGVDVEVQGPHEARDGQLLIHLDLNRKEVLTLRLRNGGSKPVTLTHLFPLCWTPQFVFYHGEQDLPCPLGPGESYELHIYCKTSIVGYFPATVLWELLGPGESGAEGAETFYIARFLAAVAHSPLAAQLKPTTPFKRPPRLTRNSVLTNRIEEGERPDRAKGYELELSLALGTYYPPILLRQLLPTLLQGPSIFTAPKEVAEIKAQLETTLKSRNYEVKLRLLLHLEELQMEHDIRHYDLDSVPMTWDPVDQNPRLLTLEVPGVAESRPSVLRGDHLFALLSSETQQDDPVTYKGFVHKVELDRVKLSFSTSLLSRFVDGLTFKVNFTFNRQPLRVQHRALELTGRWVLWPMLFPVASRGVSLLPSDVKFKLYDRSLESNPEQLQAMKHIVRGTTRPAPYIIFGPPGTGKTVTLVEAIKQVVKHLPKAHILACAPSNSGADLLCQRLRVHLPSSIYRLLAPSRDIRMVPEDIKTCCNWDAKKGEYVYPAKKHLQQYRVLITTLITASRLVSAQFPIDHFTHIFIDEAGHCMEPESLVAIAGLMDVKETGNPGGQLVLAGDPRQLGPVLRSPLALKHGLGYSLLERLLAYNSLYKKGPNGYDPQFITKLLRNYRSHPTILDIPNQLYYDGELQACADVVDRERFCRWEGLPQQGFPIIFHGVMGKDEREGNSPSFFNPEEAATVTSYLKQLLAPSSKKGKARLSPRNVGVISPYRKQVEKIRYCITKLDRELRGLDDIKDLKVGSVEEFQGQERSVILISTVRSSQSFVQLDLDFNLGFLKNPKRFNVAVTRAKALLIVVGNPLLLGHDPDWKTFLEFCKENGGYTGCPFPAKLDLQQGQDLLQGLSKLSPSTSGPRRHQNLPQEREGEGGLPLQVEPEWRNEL
Kind of assay: affinity purification with mass spectrometry; IP of mouse testis lysate (RIPA buffer) with anti-MOV10 antibody on protein G Dynabeads; Coomassie-stained bands present in the MOV10 lane and absent in the IgG lane identified by mass spectrometry.

With UPF1 (from UniProt Q9EPU0 1-1124), the binding entry is given as “binds”.
